# Results deposited as PubChem BioAssay AID1259405 (NCATS, 2018)
# Purpose: 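Silenced genes that increase secreted GFP made by CHO cells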 (primary screen)
# System: Chinese hamster CHO-K1 ovary cells with stable secreted eGFP expression
# Reagents: single siRNA against mouse genes, 0.8 pmol siRNA per well (2 µl of 400 nM stock)
# Timing: 3 days
# Measured: 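Percent of the per-plate non-targeting control median for intracellular GFP per well by laser scanning cytometry and for cell viability by ATP luminescence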
# Scale: GFP, % of control: higher = more GFP per well, higher productivity; viability (ATP), % of control: higher = more viable cells (more ATP)
# Rule for the call: 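Called active when intracellular GFP, relative to negative control, is at or above 120%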
# Shown is one part, drawn at random, of about 50,000 reagents tested. In the full data, about 4,000 (8%) are marked active. 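Mouse siRNA library applied to hamster cells; one well for each siRNA.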 Reagents against one gene are numbered here.
gene,reagent no.,"GFP, % of control","viability (ATP), % of control",call
Hivep3 (GeneID 16656),1,55.7,66.2,inactive
Hivep3 (GeneID 16656),2,89.3,82.4,inactive
Or1o4 (GeneID 258508),1,57.1,81.3,inactive
Or1o4 (GeneID 258508),2,83.6,85.9,inactive
Or1o4 (GeneID 258508),3,74.5,47.1,inactive
Kcnk5 (GeneID 16529),1,103,108,inactive
Kcnk5 (GeneID 16529),2,64.8,52.6,inactive
Kcnk5 (GeneID 16529),3,148,110,active
Fcgr2b (GeneID 14130),1,46.7,51.7,inactive
Fcgr2b (GeneID 14130),2,60,77.5,inactive
Fcgr2b (GeneID 14130),3,97.9,82.8,inactive
Slc22a29 (GeneID 236293),1,54.1,37.9,inactive
Slc22a29 (GeneID 236293),2,72.4,64.6,inactive
Slc22a29 (GeneID 236293),3,78.9,68.5,inactive
Serpinb5 (GeneID 20724),1,98.7,113,inactive
Serpinb5 (GeneID 20724),2,104,104,inactive
Serpinb5 (GeneID 20724),3,66.2,66.2,inactive
Fbxl3 (GeneID 50789),1,117,99,inactive
Fbxl3 (GeneID 50789),2,84.3,73.8,inactive
Fbxl3 (GeneID 50789),3,136,73.5,active
Lztfl1 (GeneID 93730),1,74,61.5,inactive
Lztfl1 (GeneID 93730),2,53.9,82,inactive
Lztfl1 (GeneID 93730),3,80.7,70.4,inactive
Cd36 (GeneID 12491),1,70.2,61,inactive
Cd36 (GeneID 12491),2,82,60.6,inactive
Cd36 (GeneID 12491),3,80.6,65.8,inactive
Dap3 (GeneID 65111),1,79.9,79.8,inactive
Dap3 (GeneID 65111),2,117,83.6,inactive
Dap3 (GeneID 65111),3,62.4,65.3,inactive
Gm5105 (GeneID 329763),1,71.5,75.3,inactive
Gm5105 (GeneID 329763),2,78.1,81,inactive
Gm5105 (GeneID 329763),3,85.9,97.3,inactive

As entered above:
Entry of Gm5105 (GeneID 329763) #1 in “GFP, % of control”: 71.5
Fcgr2b (GeneID 14130) #1, call: inactive
Result for Cd36 (GeneID 12491) #1 in “viability (ATP), % of control”: 61
Dap3 (GeneID 65111) #2, GFP, % of control → 117
Serpinb5 (GeneID 20724) #2, call: inactive

The results go on:
gene,reagent no.,"GFP, % of control","viability (ATP), % of control",call
Krt86 (GeneID 16679),1,74.1,83.4,inactive
Krt86 (GeneID 16679),2,45.9,62.6,inactive
Cfap97 (GeneID 66756),1,62.1,80,inactive
Cfap97 (GeneID 66756),2,73.3,82.1,inactive
Cfap97 (GeneID 66756),3,83.3,87.3,inactive
Spata4 (GeneID 69281),1,110,91.9,inactive
Spata4 (GeneID 69281),2,51.1,79.3,inactive
Spata4 (GeneID 69281),3,78.8,84.6,inactive
Nufip1 (GeneID 27275),1,113,72,inactive
Nufip1 (GeneID 27275),2,60,66.6,inactive
Nufip1 (GeneID 27275),3,56,71.1,inactive
Mrtfa (GeneID 223701),1,78.2,86.2,inactive
Mrtfa (GeneID 223701),2,70.4,73.9,inactive
Mrtfa (GeneID 223701),3,55.6,82.1,inactive
Atp6v0b (GeneID 114143),1,90.8,69.9,inactive
Atp6v0b (GeneID 114143),2,76.7,73.9,inactive
Atp6v0b (GeneID 114143),3,56.1,43,inactive
Or5m11b (GeneID 258154),1,51.1,61.2,inactive
Or5m11b (GeneID 258154),2,78.1,93,inactive
Or5m11b (GeneID 258154),3,46.6,57.5,inactive
Zbtb3 (GeneID 75291),1,59,67.3,inactive
Zbtb3 (GeneID 75291),2,101,67.3,inactive
Zbtb3 (GeneID 75291),3,88.4,103,inactive
Spdef (GeneID 30051),1,65,57.6,inactive
Spdef (GeneID 30051),2,84.2,78.3,inactive
Spdef (GeneID 30051),3,97.6,83.5,inactive
Csnk2a2ip (GeneID 224291),1,64.9,72.2,inactive
Csnk2a2ip (GeneID 224291),2,15.1,23.6,inactive
Csnk2a2ip (GeneID 224291),3,89.8,106,inactive
Rem2 (GeneID 140743),1,80.4,56.9,inactive
Rem2 (GeneID 140743),2,75.6,63.1,inactive
Rem2 (GeneID 140743),3,31.9,58,inactive
Zfp622 (GeneID 52521),1,62.2,58.7,inactive
Zfp622 (GeneID 52521),2,79.5,45.4,inactive
Zfp622 (GeneID 52521),3,50.6,62.8,inactive
Acbd5 (GeneID 74159),1,65.1,55.2,inactive
Acbd5 (GeneID 74159),2,48.9,60.8,inactive
Acbd5 (GeneID 74159),3,64,67,inactive
Or8b46 (GeneID 258807),1,99,60.4,inactive
Or8b46 (GeneID 258807),2,65.4,75.2,inactive
Or8b46 (GeneID 258807),3,71.1,91.5,inactive
Nkapl (GeneID 66707),1,75.1,48.5,inactive
Nkapl (GeneID 66707),2,86.3,58.3,inactive
Nkapl (GeneID 66707),3,83.9,71,inactive
Ncaph2 (GeneID 52683),1,54.2,83.3,inactive
Ncaph2 (GeneID 52683),2,85.5,70,inactive
Ncaph2 (GeneID 52683),3,94.8,94.4,inactive
Rgs9bp (GeneID 243923),1,76.6,61.2,inactive
Rgs9bp (GeneID 243923),2,49.8,57.8,inactive
Rgs9bp (GeneID 243923),3,64.8,80,inactive
Coro7 (GeneID 78885),1,69.2,49.1,inactive
Coro7 (GeneID 78885),2,74.3,90.2,inactive
Coro7 (GeneID 78885),3,30.6,68.2,inactive
